# Data as given in the supplement of paper PMC8728848.
# The list shows a part of the results.
# B1: SBD (Rhizopus oryzae), P07683 (protein)
# chain: ASIPSSASVQLDSYNYDGSTFSGKIYVKNIAYSKKVTVVYADGSDNWNNNGNIIAASFSGPISGSNYEYWTFSASVKGIKEFYIKYEVSGKTYYDNNNSANYQVS
# Experiments:
# Experiment in all cases: glycan array binding signal (z-score within array); higher = stronger binding
# Conditions in all cases: glycan notation: IUPAC condensed, linker removed
# [1] = target: Neu5Ac(a2-3)Gal(b1-3)GalNAc(b1-3)Gal(a1-4)Gal(b1-4)Glc
# Outline: (§1)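 Arrays were curated from the Consortium for Functional Glycomics database, 3228 in total, and kept only where the protein sequence was available. Binding is expressed as a within-array Z-score. This score was averaged across arrays of the same protein sequence at different concentrations or buffers and across linkers, and negative values can be read as non-binding.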
# [2] = target: Neu5Ac(a2-3)Gal(b1-3)GalNAc(b1-3)Gal(b1-4)GlcNAc
# Outline: as §1
# [3] = target: Neu5Ac(a2-3)Gal(b1-3)GalNAc(b1-4)[Neu5Ac(a2-3)]Gal(b1-4)Glc
# Outline: as §1
# [4] = target: Neu5Ac(a2-3)Gal(b1-3)GalNAc6S
# Outline: as §1
# [5] = target: Neu5Ac(a2-3)Gal(b1-3)GlcNAc
# Outline: as §1
# [6] = target: Neu5Ac(a2-3)Gal(b1-3)GlcNAc(b1-2)Man(a1-3)[Neu5Ac(a2-3)Gal(b1-3)GlcNAc(b1-2)Man(a1-6)]Man(b1-4)GlcNAc(b1-4)GlcNAc
# Outline: as §1
# [7] = target: Neu5Ac(a2-3)Gal(b1-3)GlcNAc(b1-3)Gal(b1-3)GlcNAc
# Outline: as §1
# [8] = target: Neu5Ac(a2-3)Gal(b1-3)GlcNAc(b1-3)Gal(b1-4)GlcNAc
# Outline: as §1
# [9] = target: Neu5Ac(a2-3)Gal(b1-3)GlcNAc(b1-3)GalNAc
# Outline: as §1
# [10] = target: Neu5Ac(a2-3)Gal(b1-3)GlcNAc6S
# Outline: as §1
# [11] = target: Neu5Ac(a2-3)Gal(b1-3)[Fuc(a1-4)]GlcNAc
# Outline: as §1
# [12] = target: Neu5Ac(a2-3)Gal(b1-3)[Fuc(a1-4)]GlcNAc(b1-3)Gal(b1-3)[Fuc(a1-4)]GlcNAc
# Outline: as §1
# [13] = target: Neu5Ac(a2-3)Gal(b1-3)[Fuc(a1-4)]GlcNAc(b1-3)Gal(b1-4)[Fuc(a1-3)]GlcNAc
# Outline: as §1
# [14] = target: Neu5Ac(a2-3)Gal(b1-3)[Neu5Ac(a2-3)Gal(b1-4)]GlcNAc
# Outline: as §1
# [15] = target: Neu5Ac(a2-3)Gal(b1-3)[Neu5Ac(a2-6)]GalNAc
# Outline: as §1
# Neu5Ac(a2-3)Gal(b1-4)Glc = target: Neu5Ac(a2-3)Gal(b1-4)Glc
# Outline: as §1
# [16] = target: Neu5Ac(a2-3)Gal(b1-4)GlcNAc
# Outline: as §1
# [17] = target: Neu5Ac(a2-3)Gal(b1-4)GlcNAc(b1-2)Man(a1-3)[GlcNAc(b1-2)Man(b1-4)GlcNAc(b1-2)Man(a1-6)]Man(b1-4)GlcNAc(b1-4)GlcNAc
# Outline: as §1
# [18] = target: Neu5Ac(a2-3)Gal(b1-4)GlcNAc(b1-2)Man(a1-3)[Neu5Ac(a2-6)Gal(b1-4)GlcNAc(b1-2)Man(a1-6)]Man(b1-4)GlcNAc(b1-4)GlcNAc
# Outline: as §1
# [19] = target: Neu5Ac(a2-3)Gal(b1-4)GlcNAc(b1-3)Gal(b1-3)GlcNAc
# Outline: as §1
# [20] = target: Neu5Ac(a2-3)Gal(b1-4)GlcNAc(b1-3)Gal(b1-4)GlcNAc
# Outline: as §1
# [21] = target: Neu5Ac(a2-3)Gal(b1-4)GlcNAc(b1-3)Gal(b1-4)GlcNAc(b1-3)Gal(b1-4)GlcNAc
# Outline: as §1
# [22] = target: Neu5Ac(a2-3)Gal(b1-4)GlcNAc(b1-3)Gal(b1-4)[Fuc(a1-3)]GlcNAc
# Outline: as §1
# [23] = target: Neu5Ac(a2-3)Gal(b1-4)GlcNAc(b1-3)GalNAc
# Outline: as §1
# [24] = target: Neu5Ac(a2-3)Gal(b1-4)GlcNAc(b1-6)[Gal(b1-3)]GalNAc
# Outline: as §1
# [25] = target: Neu5Ac(a2-3)Gal(b1-4)GlcNAc(b1-6)[Neu5Ac(a2-3)Gal(b1-3)]GalNAc
# Outline: as §1
# [26] = target: Neu5Ac(a2-3)Gal(b1-4)GlcNAc6S
# Outline: as §1
# [27] = target: Neu5Ac(a2-3)Gal(b1-4)[Fuc(a1-3)]GlcNAc
# Outline: as §1
# [28] = target: Neu5Ac(a2-3)Gal(b1-4)[Fuc(a1-3)]GlcNAc(b1-3)Gal
# Outline: as §1
# [29] = target: Neu5Ac(a2-3)Gal(b1-4)[Fuc(a1-3)]GlcNAc(b1-3)Gal(b1-4)GlcNAc
# Outline: as §1
# [30] = target: Neu5Ac(a2-3)Gal(b1-4)[Fuc(a1-3)]GlcNAc(b1-3)Gal(b1-4)[Fuc(a1-3)]GlcNAc(b1-3)Gal(b1-4)[Fuc(a1-3)]GlcNAc
# Outline: as §1
# [31] = target: Neu5Ac(a2-3)Gal(b1-4)[Fuc(a1-3)]GlcNAc(b1-3)GalNAc
# Outline: as §1
# [32] = target: Neu5Ac(a2-3)Gal(b1-4)[Fuc(a1-3)]GlcNAc(b1-6)[Gal(b1-3)]GalNAc
# Outline: as §1
# [33] = target: Neu5Ac(a2-3)Gal(b1-4)[Fuc(a1-3)]GlcNAc(b1-6)[Neu5Ac(a2-3)Gal(b1-3)]GalNAc
# Outline: as §1
# [34] = target: Neu5Ac(a2-3)Gal(b1-4)[Fuc(a1-3)]GlcNAc6S
# Outline: as §1
# [35] = target: Neu5Ac(a2-3)Gal6S(b1-4)GlcNAc
# Outline: as §1
# [36] = target: Neu5Ac(a2-3)Gal6S(b1-4)[Fuc(a1-3)]GlcNAc
# Outline: as §1
# Neu5Ac(a2-3)GalNAc = target: Neu5Ac(a2-3)GalNAc
# Outline: as §1
# [37] = target: Neu5Ac(a2-3)GalNAc(b1-4)GlcNAc
# Outline: as §1
# [38] = target: Neu5Ac(a2-3)[GalNAc(b1-4)]Gal(b1-4)Glc
# Outline: as §1
# [39] = target: Neu5Ac(a2-3)[GalNAc(b1-4)]Gal(b1-4)GlcNAc
# Outline: as §1
# [40] = target: Neu5Ac(a2-3)[GalNAc(b1-4)]Gal(b1-4)GlcNAc(b1-3)GalNAc
# Outline: as §1
# [41] = target: Neu5Ac(a2-3)[Neu5Ac(a2-6)]GalNAc
# Outline: as §1
binder,measurement,setting,value
B1,glycan array binding signal (z-score),[1],-0.192
same,glycan array binding signal (z-score),[2],-0.24
same,glycan array binding signal (z-score),[3],-0.286
same,glycan array binding signal (z-score),[4],-0.155
same,glycan array binding signal (z-score),[5],-0.118
same,glycan array binding signal (z-score),[6],-1.43
same,glycan array binding signal (z-score),[7],0.018
same,glycan array binding signal (z-score),[8],-1.29
same,glycan array binding signal (z-score),[9],2
same,glycan array binding signal (z-score),[10],-0.348
same,glycan array binding signal (z-score),[11],-0.54
same,glycan array binding signal (z-score),[12],0.817
same,glycan array binding signal (z-score),[13],0.126
same,glycan array binding signal (z-score),[14],-0.212
same,glycan array binding signal (z-score),[15],-0.178
same,glycan array binding signal (z-score),Neu5Ac(a2-3)Gal(b1-4)Glc,0.031
same,glycan array binding signal (z-score),[16],-0.182
same,glycan array binding signal (z-score),[17],-0.81
same,glycan array binding signal (z-score),[18],0.006
same,glycan array binding signal (z-score),[19],-0.81
same,glycan array binding signal (z-score),[20],-0.264
same,glycan array binding signal (z-score),[21],-0.668
same,glycan array binding signal (z-score),[22],-0.067
same,glycan array binding signal (z-score),[23],0.14
same,glycan array binding signal (z-score),[24],0.031
same,glycan array binding signal (z-score),[25],-0.106
same,glycan array binding signal (z-score),[26],0.394
same,glycan array binding signal (z-score),[27],-0.06
same,glycan array binding signal (z-score),[28],-0.484
same,glycan array binding signal (z-score),[29],0.692
same,glycan array binding signal (z-score),[30],-0.212
same,glycan array binding signal (z-score),[31],3.37
same,glycan array binding signal (z-score),[32],0.545
same,glycan array binding signal (z-score),[33],0.027
same,glycan array binding signal (z-score),[34],-0.361
same,glycan array binding signal (z-score),[35],0.019
same,glycan array binding signal (z-score),[36],-0.264
same,glycan array binding signal (z-score),Neu5Ac(a2-3)GalNAc,0.062
same,glycan array binding signal (z-score),[37],-0.492
same,glycan array binding signal (z-score),[38],-0.178
same,glycan array binding signal (z-score),[39],-0.386
same,glycan array binding signal (z-score),[40],-0.886
same,glycan array binding signal (z-score),[41],-0.576

# Pulled one by one from above, 3 records:
binder,measurement,setting,value
B1,glycan array binding signal (z-score),[12],0.817
same,glycan array binding signal (z-score),[35],0.019
same,glycan array binding signal (z-score),[10],-0.348
